Measured values published in patent US9089548B2, “Composition for protection against cell-damaging effects” (TIMA FOUNDATION, priority 2011, dated 2015).
At least one structure is not confirmed: it was looked up by name or label, or the drawing left a doubt.

Test system: hen's egg white lysozyme
Assay: Activity test of lysozyme X-irradiated in the presence of additives added before irradiation (a.r.)
Assay type: biochemical
Details: X (1000 Gy); a.r. additive 10 mM; lysozyme 0.1 mg/ml; unirradiated lysozyme = 100%
Procedure: The hen's egg white lysozyme was purchased from Serva (Heidelberg, Germany), additives and all other substances were of the highest available grade. Lysozyme (0.1 mg/ml) and the additives (10 mM, except otherwise stated) were dissolved in dilute, air-saturated 1 mM sodium phosphate buffer pH 6.5 and were irradiated at 25° C. with X-rays (0-1 kGy) in the absence or presence of the additives. Activity tests of the lysozyme were performed as described in Shugar, 1952. The measurement of lysozyme activity and the ultra-violet inactivation of lysozyme. Biochim. Biophys. Acta 8, 302-309. were recorded in a Jasco UV/VIS spectrophotometer V-530. The activity test of lysozyme is simple and straightforward. The method described by Shugar uses the diluted unirradiated or irradiated enzyme and a cell suspension of Micrococcus lysodeikticus in a special activity buffer (66 mM sodium phosphate buffer with 17 mM NaCl, pH 7.0). The bacterium is suspended in an Erlenmeyer flask in the activity buffer at a concentration of 0.2 mg/ml. […] The decrease in absorbance resulting from a breakdown of the bacteria by the enzyme is measured in a 3-ml cuvette in a spectrophotometer at a wavelength of 450 nm for a continuous time period of 3 min at 25° C. Different decreases in absorbance reflect different activities. […]

With `NC(N)=S` [Thiourea, thiourea] the “% Activity” value was 90%.
